These are yes or no findings as the source states them, for the method shown. Some results given as binding are weak or reduced against the parent protein; the word gives no strength.
Biological target: APOBEC3G NPM mutant (human) (UniProt Q9HC16)
Experiment: SEC; data not shown; oligomerization state of the mutant enzymes, method as told for the A3 enzymes (Superdex 200, 50 mM Tris pH 7.5, 200 mM NaCl); both purified

Protein sequences, listed by entry. Tags and fused reporters are not part of them. Lines headed by an entry give the natural chain unless they say otherwise; changes in a name come on top. Chains listed by the source or under a name are the forms on record and can include a tag or linker.
APOBEC3G NPM mutant (Q9HC16, form named): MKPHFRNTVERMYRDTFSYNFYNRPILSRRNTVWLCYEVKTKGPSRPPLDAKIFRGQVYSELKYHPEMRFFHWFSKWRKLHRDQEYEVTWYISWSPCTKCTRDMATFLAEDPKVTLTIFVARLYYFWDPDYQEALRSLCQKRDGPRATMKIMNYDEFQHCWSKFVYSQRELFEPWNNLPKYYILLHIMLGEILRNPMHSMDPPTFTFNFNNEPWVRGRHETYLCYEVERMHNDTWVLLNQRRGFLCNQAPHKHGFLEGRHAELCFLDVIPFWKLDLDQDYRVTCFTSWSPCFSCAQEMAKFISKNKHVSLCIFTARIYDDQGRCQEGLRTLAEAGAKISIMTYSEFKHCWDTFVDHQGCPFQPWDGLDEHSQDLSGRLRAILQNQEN

Which binding does the source give for “APOBEC3G NPM mutant (from UniProt Q9HC16 1-384) (enzyme)” here?
Its binding is “binds weakly”.

Reference: paper PMC3961392
